Drawing on paper PMC10864425, this text covers binding for one substance.

By UniProt entry, the sequences of proteins in these tests, tags left out.
UniProt Q969H0: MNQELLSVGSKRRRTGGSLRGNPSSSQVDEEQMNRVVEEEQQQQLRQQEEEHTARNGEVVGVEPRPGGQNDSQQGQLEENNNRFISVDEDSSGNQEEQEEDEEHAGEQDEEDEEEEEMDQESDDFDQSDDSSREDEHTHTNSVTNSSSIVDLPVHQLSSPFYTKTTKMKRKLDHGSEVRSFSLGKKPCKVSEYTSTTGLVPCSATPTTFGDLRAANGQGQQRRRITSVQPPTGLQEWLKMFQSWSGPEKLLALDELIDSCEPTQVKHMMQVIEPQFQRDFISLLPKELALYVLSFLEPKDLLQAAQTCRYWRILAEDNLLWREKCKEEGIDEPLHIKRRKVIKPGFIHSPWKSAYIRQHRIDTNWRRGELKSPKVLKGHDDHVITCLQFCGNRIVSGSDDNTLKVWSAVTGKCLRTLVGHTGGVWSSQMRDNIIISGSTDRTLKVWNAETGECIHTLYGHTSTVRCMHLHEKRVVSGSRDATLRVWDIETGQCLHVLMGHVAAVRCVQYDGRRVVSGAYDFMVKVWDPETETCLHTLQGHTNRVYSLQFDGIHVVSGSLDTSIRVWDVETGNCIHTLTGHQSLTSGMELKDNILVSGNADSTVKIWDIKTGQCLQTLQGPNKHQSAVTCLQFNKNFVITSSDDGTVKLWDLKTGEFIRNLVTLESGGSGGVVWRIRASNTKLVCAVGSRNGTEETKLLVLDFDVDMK

This assay addresses T1, flag-tagged FBP1 (wild type) (human) (UniProt P09467).
T1 sequence: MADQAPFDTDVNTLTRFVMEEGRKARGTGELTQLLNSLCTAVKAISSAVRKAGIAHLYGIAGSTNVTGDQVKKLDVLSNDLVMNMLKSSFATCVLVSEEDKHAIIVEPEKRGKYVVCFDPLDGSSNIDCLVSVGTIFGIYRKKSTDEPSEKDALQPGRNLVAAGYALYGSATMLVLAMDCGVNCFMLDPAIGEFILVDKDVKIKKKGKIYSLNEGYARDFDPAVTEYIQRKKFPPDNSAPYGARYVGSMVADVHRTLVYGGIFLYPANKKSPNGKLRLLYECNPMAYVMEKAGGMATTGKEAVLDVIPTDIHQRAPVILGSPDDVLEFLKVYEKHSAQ
Briefly: co-IP; H1299 cells transfected 48 h with HA-NICD1 and flag-FBP1 (WT) or vector plasmids, then treated with MG-132 for 8 h; lysate on antibody cross-linked to protein A/G magnetic beads.

No constants are given. Whether binding was seen depends on the method and setting. In cells and extracts the contact can be indirect. Some results given as binding are weak or reduced against the parent protein; the word gives no strength. Tags and fused reporters may be left off the sequences shown.

For “E3 ubiquitin ligase FBXW7 (from UniProt Q969H0 1-707)”, the binding result is given as “binds”.
